Test results published in publication doi:10.1101/2024.07.09.602822.
Results are given in words; binding and its absence hold for the method and conditions named. For some of these results: In cells and extracts the contact can be indirect. Some entries that bind do so weakly or less than the wild type. For some of these results: Sequences can lack the tags named with a protein.

Sequences of proteins named here, by UniProt entry; tags and fusion partners are left off.
UniProt P67936: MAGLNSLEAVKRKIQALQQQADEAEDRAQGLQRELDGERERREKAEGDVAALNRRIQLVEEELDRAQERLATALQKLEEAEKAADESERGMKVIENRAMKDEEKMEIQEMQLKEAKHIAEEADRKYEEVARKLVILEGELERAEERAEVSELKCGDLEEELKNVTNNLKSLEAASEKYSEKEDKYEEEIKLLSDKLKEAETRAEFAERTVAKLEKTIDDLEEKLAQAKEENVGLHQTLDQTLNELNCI
UniProt P14618: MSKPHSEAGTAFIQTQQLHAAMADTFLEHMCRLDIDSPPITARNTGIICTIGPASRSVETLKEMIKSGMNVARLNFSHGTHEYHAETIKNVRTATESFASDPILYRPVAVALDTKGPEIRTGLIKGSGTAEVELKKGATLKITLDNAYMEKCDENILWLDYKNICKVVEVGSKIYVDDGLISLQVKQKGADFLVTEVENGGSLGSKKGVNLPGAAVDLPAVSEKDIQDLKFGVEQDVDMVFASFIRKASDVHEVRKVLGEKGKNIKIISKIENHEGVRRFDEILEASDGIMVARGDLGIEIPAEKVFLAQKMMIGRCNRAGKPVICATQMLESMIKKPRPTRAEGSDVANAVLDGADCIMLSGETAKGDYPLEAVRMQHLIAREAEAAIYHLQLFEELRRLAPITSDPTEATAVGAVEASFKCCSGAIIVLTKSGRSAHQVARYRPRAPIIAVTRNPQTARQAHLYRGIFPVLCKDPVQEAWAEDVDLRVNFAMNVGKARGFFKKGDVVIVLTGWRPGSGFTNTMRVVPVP

What was measured:
TPM4-GB = TPM4-GB (UniProt P67936); test: fluorescent protein exchange
[1] = molecular target: TPM4-AcGFP (Tropomyosin 4 fused to AcGFP) (UniProt P67936); test: proximity ligation
TPM4-GFP 1-10 = TPM4-GFP 1-10 (UniProt P67936); test: split reporter

Row | binding (TPM4-GB) | Molecule | also measured
1 | binds | PKM2-RA (from UniProt P14618 1-531) (enzyme) | 
2 |  | PFKM (Phosphofructokinase muscle type) (enzyme, UniProt P08237 1-780) MTHEEHHAAKTLGIGKAIAVLTSGGDAQGMNAAVRAVVRVGIFTGARVFFVHEGYQGLVDGGDHIKEATWESVSMMLQLGGTVIGSARCKDFREREGRLRAAYNLVKRGITNLCVIGGDGSLTGADTFRSEWSDLLSDLQKAGKITDEEATKSSYLNIVGLVGSIDNDFCGTDMTIGTDSALHRIMEIVDAITTTAQSHQRTFVLEVMGRHCGYLALVTSLSCGADWVFIPECPPDDDWEEHLCRRLSETRTRGSRLNIIIVAEGAIDKNGKPITSEDIKNLVVKRLGYDTRVTVLGHVQRGGTPSAFDRILGSRMGVEAVMALLEGTPDTPACVVSLSGNQAVRLPLMECVQVTKDVTKAMDEKKFDEALKLRGRSFMNNWEVYKLLAHVRPPVSKSGSHTVAVMNVGAPAAGMNAAVRSTVRIGLIQGNRVLVVHDGFEGLAKGQIEEAGWSYVGGWTGQGGSKLGTKRTLPKKSFEQISANITKFNIQGLVIIGGFEAYTGGLELMEGRKQFDELCIPFVVIPATVSNNVPGSDFSVGADTALNTICTTCDRIKQSAAGTKRRVFIIETMGGYCGYLATMAGLAAGADAAYIFEEPFTIRDLQANVEHLVQKMKTTVKRGLVLRNEKCNENYTTDFIFNLYSEEGKGIFDSRKNVLGHMQQGGSPTPFDRNFATKMGAKAMNWMSGKIKESYRNGRIFANTPDSGCVLGMRKRALVFQPVAELKDQTDFEHRIPKEQWWLKLRPILKILAKYEIDLDTSDHAHLEHITRKRSGEAAV | binding [1]: binds
3 |  | PFKM-GFP 11 (enzyme, UniProt P08237 1-780) MTHEEHHAAKTLGIGKAIAVLTSGGDAQGMNAAVRAVVRVGIFTGARVFFVHEGYQGLVDGGDHIKEATWESVSMMLQLGGTVIGSARCKDFREREGRLRAAYNLVKRGITNLCVIGGDGSLTGADTFRSEWSDLLSDLQKAGKITDEEATKSSYLNIVGLVGSIDNDFCGTDMTIGTDSALHRIMEIVDAITTTAQSHQRTFVLEVMGRHCGYLALVTSLSCGADWVFIPECPPDDDWEEHLCRRLSETRTRGSRLNIIIVAEGAIDKNGKPITSEDIKNLVVKRLGYDTRVTVLGHVQRGGTPSAFDRILGSRMGVEAVMALLEGTPDTPACVVSLSGNQAVRLPLMECVQVTKDVTKAMDEKKFDEALKLRGRSFMNNWEVYKLLAHVRPPVSKSGSHTVAVMNVGAPAAGMNAAVRSTVRIGLIQGNRVLVVHDGFEGLAKGQIEEAGWSYVGGWTGQGGSKLGTKRTLPKKSFEQISANITKFNIQGLVIIGGFEAYTGGLELMEGRKQFDELCIPFVVIPATVSNNVPGSDFSVGADTALNTICTTCDRIKQSAAGTKRRVFIIETMGGYCGYLATMAGLAAGADAAYIFEEPFTIRDLQANVEHLVQKMKTTVKRGLVLRNEKCNENYTTDFIFNLYSEEGKGIFDSRKNVLGHMQQGGSPTPFDRNFATKMGAKAMNWMSGKIKESYRNGRIFANTPDSGCVLGMRKRALVFQPVAELKDQTDFEHRIPKEQWWLKLRPILKILAKYEIDLDTSDHAHLEHITRKRSGEAAV | binding (TPM4-GFP 1-10): binds
4 | binds | PFKM-GA (enzyme, UniProt P08237 1-780) MTHEEHHAAKTLGIGKAIAVLTSGGDAQGMNAAVRAVVRVGIFTGARVFFVHEGYQGLVDGGDHIKEATWESVSMMLQLGGTVIGSARCKDFREREGRLRAAYNLVKRGITNLCVIGGDGSLTGADTFRSEWSDLLSDLQKAGKITDEEATKSSYLNIVGLVGSIDNDFCGTDMTIGTDSALHRIMEIVDAITTTAQSHQRTFVLEVMGRHCGYLALVTSLSCGADWVFIPECPPDDDWEEHLCRRLSETRTRGSRLNIIIVAEGAIDKNGKPITSEDIKNLVVKRLGYDTRVTVLGHVQRGGTPSAFDRILGSRMGVEAVMALLEGTPDTPACVVSLSGNQAVRLPLMECVQVTKDVTKAMDEKKFDEALKLRGRSFMNNWEVYKLLAHVRPPVSKSGSHTVAVMNVGAPAAGMNAAVRSTVRIGLIQGNRVLVVHDGFEGLAKGQIEEAGWSYVGGWTGQGGSKLGTKRTLPKKSFEQISANITKFNIQGLVIIGGFEAYTGGLELMEGRKQFDELCIPFVVIPATVSNNVPGSDFSVGADTALNTICTTCDRIKQSAAGTKRRVFIIETMGGYCGYLATMAGLAAGADAAYIFEEPFTIRDLQANVEHLVQKMKTTVKRGLVLRNEKCNENYTTDFIFNLYSEEGKGIFDSRKNVLGHMQQGGSPTPFDRNFATKMGAKAMNWMSGKIKESYRNGRIFANTPDSGCVLGMRKRALVFQPVAELKDQTDFEHRIPKEQWWLKLRPILKILAKYEIDLDTSDHAHLEHITRKRSGEAAV | 
